Record: PubChem BioAssay AID686937 (Drosophila RNAi Screening Center, 2013)
In all, the deposit lists about 23,000 reagents; shown is an unselected part of those that have a named target and a result. 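Reduced-secretion tags in replicate 1 do not always agree with the z-scores; no criterion for assigning the tags was given.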 The numbers tell different reagents against one gene apart. Further read-outs or replicates are left out here. Reagent sequences are not shown. Not given: the amount of reagent.

Assay: 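Knock-downs that reduce output of a secreted reporter enzyme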 (primary screen)
System: Drosophila S2 cells expressing secreted horseradish peroxidase
Reagents: long dsRNA against Drosophila genes
Time to read-out: about 5.5 days (5 days dsRNA, then 12 h reporter induction)
Treatment: reporter expression induced after 5 days of dsRNA, read 12 h later; inducer not stated
Read-out: 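After 5 days of dsRNA and 12 h of reporter induction, medium peroxidase read by chemiluminescence and scored as per-plate z-score; higher values mean more reporter released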
Reading the numbers: z-score: higher = more reporter secreted into medium

yip7 (GeneID 38680) scored z-score, replicate 1 = 0.23.
CG42686 (retired record) (GeneID 42674) #1 gave z-score, replicate 1 = -2.8.
Depletion of CG42686 (retired record) (GeneID 42674) #2 came out at: z-score, replicate 1 = 0.33.
With knock-down of Rpn13R (GeneID 31433), the screen gave z-score, replicate 1 = 0.37.
Frq2 (GeneID 32799) showed z-score, replicate 1 = 0.47.
With knock-down of Polr1A (GeneID 36617) the results were z-score, replicate 1 = 0.32.
CG15531 (GeneID 43592) scored z-score, replicate 1 = 0.34.
Silencing of Alp10 (GeneID 38632) came out at: z-score, replicate 1 = 0.09.
Against Slu7 (GeneID 43427), the entry reads z-score, replicate 1 = -7.
CG11309 (GeneID 40356) scored z-score, replicate 1 = 0.16.
Against CG9757 (GeneID 41662) #1, the entry reads z-score, replicate 1 = 0.43.
After knock-down of CG9757 (GeneID 41662) #2 the results were z-score, replicate 1 = 0.93.
Hs6st (GeneID 42380) #1 showed z-score, replicate 1 = 0.13.
For Hs6st (GeneID 42380) #2 the deposit lists z-score, replicate 1 = 0.57.
With knock-down of Hs6st (GeneID 42380) #3, the screen gave z-score, replicate 1 = -0.48.
Hs6st (GeneID 42380) #4 gave z-score, replicate 1 = -0.64.

In a second layout: results already given
| target gene | dsRNA no. | z-score, replicate 1 |
| --- | --- | --- |
| CG42686 (retired record) (GeneID 42674) | 1 | -2.8 |
| CG42686 (retired record) (GeneID 42674) | 2 | 0.33 |
